The text below walks through data of doi:10.1101/2022.04.02.486817.

Sequences of proteins named here, by UniProt entry; tags and fusion partners are left off. Residues count along the entry.
UniProt P17427, residues 702-938: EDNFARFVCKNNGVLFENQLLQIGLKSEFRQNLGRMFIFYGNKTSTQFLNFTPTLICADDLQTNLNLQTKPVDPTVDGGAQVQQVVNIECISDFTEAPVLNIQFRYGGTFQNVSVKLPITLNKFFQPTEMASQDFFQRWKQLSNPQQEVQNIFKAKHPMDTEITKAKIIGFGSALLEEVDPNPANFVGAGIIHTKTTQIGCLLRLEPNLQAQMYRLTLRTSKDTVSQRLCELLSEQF

These are yes or no findings as the source states them, for the method shown. Some results given as binding are weak or reduced against the parent protein; the word gives no strength.

The target of the assay is AP2 α-appendage (UniProt P17427). Kind of assay: crystal structure.

B1: FCHO1 C peptide (residues 426-448 …) (peptide)
peptide: SEEQVSKNLFGPPLESAFDHEH
On to B1, for which the binding result is recorded as “binds”.
